Consider two substances from patent US20130280269A1, “Manipulation of HSP70 and IRE1Alpha Protein Interactions” (National University of Ireland, priority 2010, published 2013).

Sequences of proteins named here, by UniProt entry; tags and fusion partners are left off. A change or cut given only in a name is not applied to a line headed by its entry.
UniProt O75460: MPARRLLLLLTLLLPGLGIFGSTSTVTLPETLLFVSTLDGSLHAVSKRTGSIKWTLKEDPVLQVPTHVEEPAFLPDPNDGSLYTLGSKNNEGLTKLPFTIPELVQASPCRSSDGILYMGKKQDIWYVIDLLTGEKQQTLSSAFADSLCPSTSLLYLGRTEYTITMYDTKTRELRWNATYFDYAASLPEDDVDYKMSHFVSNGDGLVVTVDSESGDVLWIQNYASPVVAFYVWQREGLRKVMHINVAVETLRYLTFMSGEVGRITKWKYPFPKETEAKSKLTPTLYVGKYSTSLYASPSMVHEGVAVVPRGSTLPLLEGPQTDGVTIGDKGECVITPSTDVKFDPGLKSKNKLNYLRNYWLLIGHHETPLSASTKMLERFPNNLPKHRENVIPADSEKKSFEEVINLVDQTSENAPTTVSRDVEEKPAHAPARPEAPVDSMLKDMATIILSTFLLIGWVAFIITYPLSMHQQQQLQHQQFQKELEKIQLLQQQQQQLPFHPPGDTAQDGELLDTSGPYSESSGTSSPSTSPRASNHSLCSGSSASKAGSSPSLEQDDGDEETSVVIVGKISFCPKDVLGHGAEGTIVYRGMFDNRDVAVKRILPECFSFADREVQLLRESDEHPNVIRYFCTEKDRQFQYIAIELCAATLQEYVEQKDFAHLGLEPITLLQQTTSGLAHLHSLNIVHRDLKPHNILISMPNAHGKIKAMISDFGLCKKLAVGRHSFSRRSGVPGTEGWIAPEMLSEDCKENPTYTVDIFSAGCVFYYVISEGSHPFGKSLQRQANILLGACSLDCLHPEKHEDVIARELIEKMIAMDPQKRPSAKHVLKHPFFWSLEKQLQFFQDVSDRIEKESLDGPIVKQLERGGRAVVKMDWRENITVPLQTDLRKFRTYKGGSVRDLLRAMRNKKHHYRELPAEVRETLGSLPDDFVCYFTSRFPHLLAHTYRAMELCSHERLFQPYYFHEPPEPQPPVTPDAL
UniProt P0DMV8: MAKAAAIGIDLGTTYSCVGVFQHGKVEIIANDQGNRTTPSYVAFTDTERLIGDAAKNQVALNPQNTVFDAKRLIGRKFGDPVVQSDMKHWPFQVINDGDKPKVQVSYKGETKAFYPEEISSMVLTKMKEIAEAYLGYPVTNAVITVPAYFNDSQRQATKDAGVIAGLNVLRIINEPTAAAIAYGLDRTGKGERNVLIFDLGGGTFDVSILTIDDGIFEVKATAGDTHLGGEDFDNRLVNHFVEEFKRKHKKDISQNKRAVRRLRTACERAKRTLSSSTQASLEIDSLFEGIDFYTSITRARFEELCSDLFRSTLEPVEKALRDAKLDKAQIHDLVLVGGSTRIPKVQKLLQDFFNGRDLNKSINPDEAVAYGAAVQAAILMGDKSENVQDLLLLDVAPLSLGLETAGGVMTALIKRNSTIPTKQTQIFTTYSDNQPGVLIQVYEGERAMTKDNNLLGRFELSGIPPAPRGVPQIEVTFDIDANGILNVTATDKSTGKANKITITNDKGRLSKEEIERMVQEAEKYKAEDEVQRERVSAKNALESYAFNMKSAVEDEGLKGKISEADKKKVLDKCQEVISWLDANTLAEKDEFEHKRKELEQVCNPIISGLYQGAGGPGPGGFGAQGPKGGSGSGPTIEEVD

No constants are given. Whether binding was seen depends on the method and setting. In cells and extracts the contact can be indirect. Some binding calls cover weakened binding; strength is not graded here.

The target in assay [1] is wild-type IRE1α FL-HA (Homo sapiens (Human)) (UniProt O75460). Briefly: co-immunoprecipitation with HA-agarose from PC12 cells, western blot (FIG. 5D).
Assay [2] shares this target. Briefly: co-immunoprecipitation with HA-agarose from Hsp72-expressing PC12 cells, western blot; the interaction was not altered by thapsigargin treatment (FIG. 5C).
The target is the same in assay [3]. As to the kind of experiment: co-immunoprecipitation and western blot (legend of FIG. 5). For orientation: A western blot detects proteins with antibodies after separation by electrophoresis.

Turning to ΔEEVD-Hsp72 (from UniProt P0DMV8 1-637), the binding result in assay [1] is recorded as “binds”.

For the substance “wild-type Hsp72 (inducible form of Hsp70), stably expressed in PC12 cells (from UniProt P0DMV8 2-641)”, the binding result in assay [2], in assay [3] and in assay [1] was “binds” throughout.
